Screen size: about 300,000 compounds; about 3,700 (1.2%) were called active. Inconclusive means that the source gave no clear call. Such entries were picked first, then a sample of the others. The call rests on the fitted dose curve; tested in HEK293 cells. Where the call is inconclusive, the potency comes from a doubtful curve fit.
Experiment: qHTS for Inhibitors of binding or entry into cells for Lassa Virus; further: nearly all actives have a fitted effect of over 50% in size
Settings: Lassa virus pseudotype entry inhibition, cell reporter; activity change, negative = inhibition: at 37.9 µM (top of the series) unless noted
On the % scale 0 is the no-effect control and ±100 the full control effect; potency means the concentration at half of the fitted maximal effect.

Row | SMILES | Potency | activity change, negative = inhibition
1 | O=C(CCN1c2ccccc2Sc2ccccc21)OCc1nnc(-c2ccccc2)o1 | inconclusive: 1.26 µM [activator, single point] | –
2 | COc1ccccc1CNS(=O)(=O)c1csc(C(N)=O)c1 | – | inactive: -1.52% [at 46.1 µM]
3 | c1ccc(Cn2ncc3c(NCc4ccco4)ncnc32)cc1 | inconclusive: 3.66 µM [inhibitor, full curve] | –
4 | CCN(CC(=O)Nc1c(F)cccc1F)C(=O)c1cc(S(=O)(=O)N(CC)CC)ccc1N1CCCCC1 | inconclusive: 0.562 µM [inhibitor, full curve, poor fit] | –
5 | Cc1cccc(CSc2cn(CC(=O)N3CCCCC3)c3ccccc23)c1 | inconclusive: 35.5 µM [inhibitor, single point] | –
6 | O=C1CCCC2=C1C(c1ccc(O)c(O)c1)Nc1ccc3ccccc3c12 (centres undefined) | inconclusive: 8.91 µM [inhibitor, partial curve, poor fit] | –
7 | Oc1ccc(Nc2nc(N3CCCC3)c3ccccc3n2)cc1 | inconclusive: 22.4 µM [inhibitor, single point] | –
8 | CSC1=N/C(=C\c2ccc(Cl)cc2)C(=O)N1N(C)C | – | inactive: 5.56%
9 | ClCCNc1nc2ccc(Cl)cc2[nH]1 | inconclusive: 2.31 µM [activator, partial curve, poor fit] | –
10 | COc1ccc(CCNC(=O)C2CCN(S(C)(=O)=O)CC2)cc1OC | inconclusive: 3.66 µM [inhibitor, partial curve, poor fit] | –
11 | COc1ccc(C(c2nnnn2CCc2ccccc2)N2CCN(C3CCCC3)CC2)cc1 (centres undefined) | inconclusive: 35.5 µM [inhibitor, single point] | –
12 | CCn1c(=O)[nH]c(=O)c2c(N)c(C(=O)c3ccccc3OC)sc21 | inconclusive: 10 µM [inhibitor, partial curve, poor fit] | –
13 | CC1=CC(C)C(/C=N/N=C(N)N)C(C)C1 (centres undefined) | inconclusive: 35.5 µM [inhibitor, single point] | –
14 | CCOC(=O)C(/C=N/c1cc(C)nn1-c1ccccc1)=C(\C)O | inconclusive: 2.06 µM [inhibitor, full curve, poor fit] | –
15 | CC(C)CNS(=O)(=O)c1cc(C(=O)OCC(=O)c2ccc3c(c2)OCCO3)c(Cl)cc1Cl | inconclusive: 35.5 µM [inhibitor, single point] | –
16 | CNC(=O)c1ccc2c(c1)N=C(C)c1cc(C)ccc1S2 | – | inactive: -17.4% [at 46.1 µM]
17 | CCOC(=O)C1=NNC(C(=O)c2ccc(C)cc2)C1c1ccc(C)cc1 (centres undefined) | inconclusive: 0.891 µM [inhibitor, partial curve, poor fit] | –
18 | O=C(CSc1nc2cc(C(=O)NC3CCCC3)ccc2c(=O)n1CC1CCCO1)c1ccc(F)cc1 (centres undefined) | – | inactive: -8.3% [at 46.1 µM]
19 | COc1ccc(N(C(=O)c2snc(C(N)=O)c2N)C(C(=O)NC2CCCCC2)c2ccc(F)cc2)c(OC)c1 (centres undefined) | inconclusive: 6.31 µM [inhibitor, partial curve, poor fit] | –
20 | O=C(CSc1ccc(Cl)cc1)NC(=O)NCc1ccco1 | inconclusive: 17.8 µM [inhibitor, single point] | –
21 | CCCn1cnc2c(SCc3ccccc3Cl)nc(N)nc21 | active: 11.2 µM | –
22 | Cc1ccc(C(=O)Nc2nc3ccc(S(C)(=O)=O)cc3s2)s1 | inconclusive: 14.6 µM [inhibitor, partial curve, poor fit] | –
23 | CC1CCN(c2oc(-c3cccs3)nc2S(=O)(=O)c2ccc(Cl)cc2)CC1 | inconclusive: 2.51 µM [inhibitor, full curve, poor fit] | –

Row | SMILES | Potency | activity change, negative = inhibition
24 | Cc1ccc(CNC(=O)c2ccc(-n3c(C)cc4c3CCCC4)cc2)cc1 | inconclusive: 35.5 µM [inhibitor, single point] | –
25 | Cc1cc(C(=O)CN(Cc2ccc(F)cc2)S(=O)(=O)c2ccc3c(c2)OCCO3)c(C)n1C | inconclusive: 18.3 µM [inhibitor, single point] | –
26 | O=C(NC1CCN(Cc2ccccc2)CC1)c1ccccc1OCc1ccccc1Cl | active: 10 µM | –
27 | C/C(=N/NC(N)=S)c1ccc(Br)s1 | inconclusive: 11.2 µM [inhibitor, single point] | –
28 | O=C(NC1CCCCC1)NC1CC2CCC(C1)N2Cc1nnnn1Cc1ccc2c(c1)OCO2 (centres undefined) | inconclusive: 15.8 µM [inhibitor, partial curve, poor fit] | –
29 | Brc1c(Br)c(Br)c2n[nH]nc2c1Br | inconclusive: 1.03 µM [inhibitor, partial curve, poor fit] | –
30 | COC(=O)CSc1nc2c(cnn2-c2ccc(F)cc2)c(=O)[nH]1 | inconclusive: 12.6 µM [activator, single point] | –
31 | O=C(Nc1ccccc1)N1CCc2ccccc21 | – | inactive: -22.4%
32 | Oc1cc2ccccc2nc1-c1ccccc1Cl | inconclusive: 1.41 µM [activator, full curve, poor fit] | –
33 | Cc1cccc(C(=O)Nc2nnc(-c3ccncc3)o2)c1 | – | inactive: -0.163% [at 46.1 µM]
34 | C[N+](C)(CC#Cc1ccccc1)CC(=O)c1ccccc1 | – | inactive: -16.2%
35 | O=C(NCc1cccs1)C1CC(=O)N(c2ccc(Cl)cc2)C1 (centres undefined) | – | inactive: 27.9%
36 | O=C1CC(/C=C/c2ccccn2)=Nc2ccccc2N1 | inconclusive: 35.5 µM [inhibitor, single point] | –
37 | O=C(CO/N=C1\CCCc2nonc21)Nc1ccc(Br)cc1 | inconclusive: 1 µM [inhibitor, single point] | –
38 | CCC(=O)Nc1cccc(-c2cnc3ccccc3n2)c1 | inconclusive: 6.51 µM [activator, partial curve] | –
39 | O=C(NCCN1CCOCC1)/C(=C/c1ccc(F)cc1)NC(=O)c1ccccc1 | inconclusive: 2.82 µM [activator, full curve] | –
40 | O=[N+]([O-])c1cc(Cl)ccc1NCCNc1ncc(C(F)(F)F)cc1Cl | – | inactive: 7.42%
41 | COc1ccc(C(=O)O/N=C(\N)Cc2ccc(Cl)cc2)cc1OC | active: 11.2 µM | –
42 | O=C(COc1coc(CN2CCN(c3ccccc3)CC2)cc1=O)Nc1ccc(F)cc1 | – | inactive: -21%
43 | Cc1cc2nc(C3CCCN(C(=S)Nc4ccccc4C)C3)[nH]c2cc1C (centres undefined) | inconclusive: 9.2 µM [inhibitor, partial curve, poor fit] | –
44 | CCOC(=O)C1CCCN(C(=O)c2cc(-c3ccc(C)cc3)nc3ccccc23)C1 (centres undefined) | inconclusive: 6.31 µM [inhibitor, partial curve, poor fit] | –
45 | c1ccc2c(-c3cc(C4CCNCC4)[nH]n3)cccc2c1 | inconclusive: 35.5 µM [inhibitor, single point] | –
46 | CCOc1ccc(NC(=S)N2CCc3cc(OC)c(OC)cc3C2COc2ccc3c(C)cc(=O)oc3c2)cc1 (centres undefined) | inconclusive: 3.26 µM [inhibitor, partial curve, poor fit] | –

An excerpt from above in order of number of heavy atoms, smallest number first:
Row | SMILES | Potency | activity change, negative = inhibition
32 | Oc1cc2ccccc2nc1-c1ccccc1Cl | inconclusive: 1.41 µM [activator, full curve, poor fit] | –
30 | COC(=O)CSc1nc2c(cnn2-c2ccc(F)cc2)c(=O)[nH]1 | inconclusive: 12.6 µM [activator, single point] | –
44 | CCOC(=O)C1CCCN(C(=O)c2cc(-c3ccc(C)cc3)nc3ccccc23)C1 (centres undefined) | inconclusive: 6.31 µM [inhibitor, partial curve, poor fit] | –
42 | O=C(COc1coc(CN2CCN(c3ccccc3)CC2)cc1=O)Nc1ccc(F)cc1 | – | inactive: -21%
46 | CCOc1ccc(NC(=S)N2CCc3cc(OC)c(OC)cc3C2COc2ccc3c(C)cc(=O)oc3c2)cc1 (centres undefined) | inconclusive: 3.26 µM [inhibitor, partial curve, poor fit] | –

(list continues)

Row | SMILES | Potency | activity change, negative = inhibition
47 | Cc1nnc(SCC(=O)c2ccc(Cl)cc2)s1 | – | inactive: -6.51% [at 46.1 µM]
48 | COc1cccc(OCc2cc(/C=N/NC(=O)c3ccn[nH]3)ccc2OC)c1 | – | inactive: -24.2%
49 | COc1cccc(OC)c1Nc1nc(C)nc2c1nnn2Cc1ccccc1Cl | – | inactive: 1.75%
50 | N/C(=N\OC(=O)N1CCOCC1)c1ccccc1 | active: 11.6 µM | –
51 | Cc1nc(N2CCN(Cc3ccc4c(c3)OCO4)CC2)c2oc3ccccc3c2n1 | – | inactive: -27.6%
52 | COCCCN1C(=O)c2ccc(C(=O)Nc3ccccc3OC)cc2C1=O | – | inactive: 8.73%
53 | O=C1CCCN1CCCNCC(=O)N1c2ccccc2Sc2ccccc21 | inconclusive: 1.16 µM [inhibitor, single point] | –
54 | COCCNC(=O)C(=O)Nc1ccc2c(c1)N(S(=O)(=O)c1cccs1)CCC2 | active: 1.78 µM | –
55 | COc1ccccc1NC(=O)N1CCCC1C(=O)Nc1ccc2c(c1)OCCO2 (centres undefined) | inconclusive: 18.3 µM [activator, partial curve, poor fit] | –
56 | CSC(=CC(=O)c1ccccc1)SC | – | inactive: 44.6% [at 14.3 µM]
57 | O=C(Cn1c(=O)n(Cc2nc(-c3ccccc3)no2)c(=O)c2cc3c(cc21)OCO3)Nc1ccc(Cl)cc1 | – | inactive: 16.7% [at 46.1 µM]
58 | O=C(NNc1ccccc1)c1ccc(Cl)c(Cl)c1 | inconclusive: 3.16 µM [inhibitor, partial curve, poor fit] | –
59 | CCCCOC(=O)Nc1ccc(C)c(Cl)c1 | inconclusive: 1.26 µM [activator, partial curve] | –
60 | COC(=O)C1=C(C)N(CCc2c[nH]c3ccccc23)C(=O)C1 | inconclusive: 0.631 µM [inhibitor, single point] | –
61 | COC(=O)c1cncc(C=Cc2c(C)cc(O)cc2C)c1 | active: 3.15 µM | –
62 | Cc1cc(C)c2cc(C(c3nnnn3CC3CCCO3)N3CCN4CCCC4C3)c(=O)[nH]c2c1 (centres undefined) | inconclusive: 14.6 µM [activator, partial curve, poor fit] | –
63 | COc1cnc(-c2ccccn2)nc1Sc1ccc(Cl)cc1 | inconclusive: 29.1 µM [inhibitor, single point] | –
64 | Cc1cccc(NC(=O)c2cc(S(=O)(=O)c3ccccc3)ccc2Cl)c1 | inconclusive: 15.8 µM [inhibitor, single point] | –
65 | CCc1ccc(Nc2nc(N)nc(CSc3nnnn3-c3ccccc3)n2)cc1 | inconclusive: 22.4 µM [inhibitor, single point] | –
66 | COc1ccc(Nc2cc(Sc3ccc(OC)cc3)ncn2)cc1 | inconclusive: 20 µM [inhibitor, partial curve, poor fit] | –
67 | CCc1ccc(CNC(=O)C2CCCN(S(=O)(=O)N(CC)c3ccccc3)C2)cc1 (centres undefined) | inconclusive: 17.8 µM [inhibitor, single point] | –
68 | Cc1ccc(N=Cc2c(O)[nH]c3ccccc23)c([N+](=O)[O-])c1 | inconclusive: 6.31 µM [inhibitor, single point] | –
69 | Cc1oc(-c2cccc(Br)c2)nc1CN1CCC(C(=O)NCCc2ccc(Cl)cc2)CC1 | inconclusive: 12.6 µM [activator, single point] | –

From PubChem BioAssay AID540256 (National Center for Advancing Translational Sciences (NCATS), 2011)
